US20120142103A1, “METHOD FOR INDUCING DIFFERENTIATION INTO EPITHELIAL PROGENITOR CELL/STEM CELL POPULATION AND CORNEAL EPITHELIAL CELL POPULATION FROM INDUCED PLURIPOTENT STEM CELLS” (priority 2010, published 2012)
For at least one compound, name, drawing or mass did not settle the structure.

Tests used:
Format in all cases: cell-based
mouse iPS cells = assay: Modified KCM method with retinoic acid: immunostaining of p63 and keratin 14, mouse iPS cells; conditions: KCM medium + 0.5 nM BMP4 + 1 μM retinoic acid, on collagen, 21-day culture
mouse ES cells (RF8) = assay: Modified KCM method with retinoic acid: immunostaining of p63 and keratin 14, mouse ES cells; conditions: KCM medium + 0.5 nM BMP4 + 1 μM retinoic acid, on collagen, 21-day culture
human iPS cells = assay: Modified SDIA method with retinoic acid: immunostaining of p63 and keratin 14, human iPS cells

## CC1=C(/C=C/C(C)=C/C=C/C(C)=C/C(=O)O)C(C)(C)CCC1 [retinoic acid]
Mouse iPS cells
  expressions of epithelial cell markers p63 and keratin 14 (immunostaining): high expressions
Mouse ES cells (RF8)
  expressions of epithelial cell markers p63 and keratin 14 (immunostaining): high expressions
Human iPS cells; 3T3 feeders, differentiation medium with 0.5 nM BMP4 + 1 μM retinoic acid, then KCM medium, day 15
  expression of epithelial cell marker p63 (immunostaining): high expression
Human iPS cells; 3T3 feeders, differentiation medium with 0.5 nM BMP4 + 1 μM retinoic acid, then KCM medium, day 29
  expression of K14 (immunostaining): confirmed
Human iPS cells; 3T3 feeders, differentiation medium with 0.5 nM BMP4 + 1 μM retinoic acid, then epithelial induction medium, day 15
  appearance of p63-positive cells (immunostaining): p63-positive cells did not appear
Human iPS cells; PA6 feeders, differentiation medium with 1 μM retinoic acid, then KCM medium, day 15
  expression of epithelial cell marker p63 (immunostaining): high expression
